The text below walks through data of the supplement of paper PMC12067093, “Discovery and optimisation of a covalent ligand for TRIM25 and its application to targeted protein ubiquitination” (Chemical Science, 2025).

By UniProt entry, the sequences of proteins in these tests, tags left out.
UniProt Q00987, whole entry, looked up: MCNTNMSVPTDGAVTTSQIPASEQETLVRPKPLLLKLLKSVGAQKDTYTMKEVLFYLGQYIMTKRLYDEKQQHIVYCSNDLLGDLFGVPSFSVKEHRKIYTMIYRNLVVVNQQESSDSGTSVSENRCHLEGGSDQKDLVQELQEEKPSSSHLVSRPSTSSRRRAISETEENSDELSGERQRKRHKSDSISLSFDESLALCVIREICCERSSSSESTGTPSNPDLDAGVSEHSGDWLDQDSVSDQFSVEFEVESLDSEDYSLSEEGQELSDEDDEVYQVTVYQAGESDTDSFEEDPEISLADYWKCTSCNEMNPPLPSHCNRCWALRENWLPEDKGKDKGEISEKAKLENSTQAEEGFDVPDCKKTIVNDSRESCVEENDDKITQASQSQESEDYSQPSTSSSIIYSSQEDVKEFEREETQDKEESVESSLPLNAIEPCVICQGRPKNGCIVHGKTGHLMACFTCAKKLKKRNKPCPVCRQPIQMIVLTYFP

Compound in this assay: CC1Cc2ccccc2N1C(=O)C1CCCN(C1)C(=O)CCl (mixture of isomers) [TRIM25 ligand 11 (diastereomer mixture)]
The assay can be described thus: probe-labelled cysteine peptide fold change vs DMSO (competition) (log2 fold change); higher = less target engagement (more negative = stronger competition). The settings on record: THP-1, incubation time: 4 h.

The other results are listed elsewhere or left out.
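Further: competitive chemoproteomic profiling in live THP-1 cells with an iodoacetamide desthiobiotin (IA-DTB) probe, comparing probe-labelled peptide intensities in compound-treated cells against DMSO-treated controls.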

As for “MDM2_Q00987_77_QQHIVYCSNDLLGDLFGVPSFSVK (UniProt Q00987)”, the “probe-labelled cysteine peptide fold change” value (10 µM) was 0.283 and the “probe-labelled cysteine peptide fold change” value (50 µM) was found to be 0.41.
